Data published in PubChem BioAssay AID1259354 (Paczesny and Yang Labs, IUPUI and University of Michigan, 2018).
Hit rate of the full screen: of about 78,000 compounds, about 1,800 (2.3%) were called active. Inconclusive means that the source gave no clear call. Such entries were picked first, then a sample of the others. No stated cut-off is given here; in the data, active means inhibition above about 30%; inconclusive means mostly about 10% to 28%; inactive means weaker than that.

Sequences of proteins named here, by UniProt entry; tags and fusion partners are left off. A change or cut given only in a name is not applied to a line headed by its entry.
UniProt Q01638: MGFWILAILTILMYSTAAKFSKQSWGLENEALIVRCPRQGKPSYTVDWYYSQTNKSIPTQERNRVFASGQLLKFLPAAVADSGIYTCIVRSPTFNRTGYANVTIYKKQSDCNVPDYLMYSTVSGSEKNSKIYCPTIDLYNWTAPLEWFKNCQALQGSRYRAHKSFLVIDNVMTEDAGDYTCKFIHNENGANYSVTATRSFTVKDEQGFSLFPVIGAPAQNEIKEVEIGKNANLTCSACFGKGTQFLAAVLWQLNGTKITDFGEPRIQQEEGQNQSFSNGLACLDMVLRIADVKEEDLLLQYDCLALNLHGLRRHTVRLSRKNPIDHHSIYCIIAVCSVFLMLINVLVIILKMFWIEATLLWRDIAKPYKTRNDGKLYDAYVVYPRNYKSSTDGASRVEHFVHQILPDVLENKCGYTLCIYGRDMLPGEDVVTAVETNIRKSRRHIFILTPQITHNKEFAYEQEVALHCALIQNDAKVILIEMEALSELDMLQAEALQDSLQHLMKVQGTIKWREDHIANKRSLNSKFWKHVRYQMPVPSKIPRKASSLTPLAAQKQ

Target: Interleukin-1 receptor-like 1 (Homo sapiens) (UniProt Q01638)
Test: blocks human ST2 binding to IL-33, primary screen, biochemical, AlphaLISA (AID 1259354)
Conditions: AlphaLISA ST2-Fc/biotin-IL-33 interaction, 1 h; at 17 µM, stronger effect = higher value

SMILES | inhibition
Cc1ccnc(NC(c2cc(C)ccc2O)c2ccc3cccnc3c2O)c1 (centres undefined) | inconclusive: 24%
CCCS(=O)(=O)N1CCCC(C(=O)NCCCOC(C)C)C1 (centres undefined) | inconclusive: 13%
C=C(C)C(O)C(OC)c1c(OC)ccc2ccc(=O)oc12 (centres undefined) | inactive
COc1cccc(-c2cc3c(n(CC4CC4)c2=O)CCN(Cc2c(F)cccc2Cl)C3)c1OC | inactive
COCc1c(C(=O)N2CCN(c3ccccc3)CC2)cnn1-c1nccc(-c2cccs2)n1 | inconclusive: 14%
CCC(CC)n1nc(C)cc1NC(=O)C1(C)CC(C)=NO1 (centres undefined) | inconclusive: 13%
COCCCn1c(C23CC4CC(CC(C4)C2)C3)cn2c3c(=O)n(C)c(=O)n(C)c3nc12 | inconclusive: 13%
O=C(/C=C/c1ccc2c(c1)OCO2)Nc1ccc(Br)cc1 | inconclusive: 10%
Cc1c(C(=O)NC2CCCCC2C)oc2ccc(S(=O)(=O)N3CCC(C)CC3)cc12 (centres undefined) | inactive
O=C(Oc1cc(O)c2c(c1)O[C@@H](c1ccc(O)c(O)c1)[C@H](O)C2)c1cc(O)c(O)c(O)c1 | inactive
CSc1ccc(CN2CCSCC2)cc1 | inconclusive: 17%
CCC(=O)Nc1cccc(C(=O)N(CC)CCN2CCCCCC2)c1 | inconclusive: 17%
CCOc1ccc(-c2cn(-c3cccc(SC)c3)c(=O)[nH]2)cc1 | inconclusive: 16%
CC1CCCC(C)N1CCNC(=O)c1ccc2c(c1)ncn2C1CCCCC1 (centres undefined) | inconclusive: 10%
O=[N+]([O-])c1ccc(CN2CCN(C/C=C/c3ccccc3)CC2)o1 | inconclusive: 11%
COC(=O)C(C)(C)NC(=O)CCC1CCCCN1C (centres undefined) | inconclusive: 21%
Cn1nc(C(=O)Nc2ccc(Br)cc2)cc1C(=O)Nc1ccc(Br)cc1 | inactive
C=CCN(Cc1ccccn1)Cc1cn[nH]c1-c1ccc(F)cc1 | inconclusive: 16%
COc1ccc(OC)c(/C=C2\SC(N3CCC(C)CC3)=NC2=O)c1 | inconclusive: 14%
C/C=C(\C)CN1CCN(C/C=C/c2ccccc2)CC1 | inconclusive: 17%
COCC(=O)N(C[C@H]1O[C@@H](CC(=O)NC2CC2)[C@H](O)[C@@H]1O)C[C@H]1O[C@@H](CC(=O)NC2CC2)[C@H](O)[C@@H]1O | inconclusive: 22%
CN(Cc1ccccc1)C(=O)c1cc(-c2ccc(Cl)cc2)on1 | inactive
Cc1[nH]n(-c2cccc(Cl)c2)c(=O)c1C=Nc1ccc(Cl)c(C(=O)O)c1 | inactive

SMILES | inhibition
Cc1cccc(-c2ncc(CN3CCCC(CO)(Cc4cccc(Cl)c4)C3)cn2)c1 (centres undefined) | inconclusive: 13%
Fc1ccc(C2(c3noc(CCc4nc(Cl)n[nH]4)n3)CCOC2)cc1 (centres undefined) | inactive
CS(=O)(=O)N1CCCN(Cc2cc3n(n2)CCCNC3)CC1 | inconclusive: 10%
C=C(C)C#Cc1cc(O)c(CC=C(C)C)cc1O | inconclusive: 14%
Cc1ccc(Cl)cc1NS(=O)(=O)c1cccc2cccnc12 | inconclusive: 15%
CC(C)(Oc1ccc(Cl)cc1)C(=O)NCCSc1c[nH]c2ccccc12 | inactive
Cc1cccc2c(=O)oc(-c3ccc(F)cc3)nc12 | inconclusive: 15%
CC1(C)CC2CC(C)(CN2C(=O)C2CCN(S(=O)(=O)c3ccccc3[N+](=O)[O-])CC2)C1 (centres undefined) | inconclusive: 17%
CN1CCc2c(sc3c2C(=O)NC(c2ccc(-c4ccc(Cl)cc4)o2)N3)C1 (centres undefined) | inconclusive: 10%
Cc1ccc(CN2C(=O)SC(Nc3ccc(C)cc3)C2=O)cc1 (centres undefined) | inactive
O=C(Nc1ccccc1-c1ccccc1NC(=O)c1ccc(F)cc1)c1ccc(F)cc1 | inactive
Oc1cccc2ccc(/C=C/c3cc4c(cc3Br)OCO4)nc12 | active: 32%
Cc1ccc(C(=O)N2CCCCC2CCn2ccnc2)cc1NC(=O)C1CC1 (centres undefined) | inconclusive: 26%
CC(=O)Nc1nc2ccccc2n1CCN1CCCC1 | inactive
O=C(CCCOc1ccc(Cl)cc1Cl)Nc1ncccn1 | inconclusive: 10%
CC(C)(C)N1C(=O)c2ccc(S(=O)(=O)c3ccc4c(c3)C(=O)N(C(C)(C)C)C4=O)cc2C1=O | active: 30%
CS(=O)(=O)N[C@H]1C[C@H]2C(=O)Nc3ccc(-c4cccc(C(F)(F)F)c4)cc3C(=O)N2C1 | inconclusive: 22%
CC(=O)c1ccc(NC(=O)N[C@H]2C[C@@](O)(C(=O)N[C@@H](Cc3ccc(O)cc3)C(N)=O)C[C@@H](O)[C@@H]2O)cc1 | inactive
CCOc1cc2c(cc1OCC)C1C(C(=O)N3CCCC(C)C3)c3ccccc3C(=O)N1CC2 (centres undefined) | inconclusive: 12%
CCc1[nH]c2c(CNC(=O)Cc3c(C)noc3C)cc(F)cc2c1C | inactive
CCC(=O)Nc1nc(-c2cccs2)nc2c1c(=O)oc1ccccc12 | inactive
COc1ccc(/C=C2\CCC/C(=C\c3ccc(OC)c(OC)c3)C2=O)cc1OC | active: 30%
CC(C)=CC(=O)NCCOc1ccccc1F | inconclusive: 18%

5 compounds picked at random from those above, as already listed:
SMILES | inhibition
CS(=O)(=O)N[C@H]1C[C@H]2C(=O)Nc3ccc(-c4cccc(C(F)(F)F)c4)cc3C(=O)N2C1 | inconclusive: 22%
COc1ccc(/C=C2\CCC/C(=C\c3ccc(OC)c(OC)c3)C2=O)cc1OC | active: 30%
CC(=O)c1ccc(NC(=O)N[C@H]2C[C@@](O)(C(=O)N[C@@H](Cc3ccc(O)cc3)C(N)=O)C[C@@H](O)[C@@H]2O)cc1 | inactive
CC(C)(Oc1ccc(Cl)cc1)C(=O)NCCSc1c[nH]c2ccccc12 | inactive
CS(=O)(=O)N1CCCN(Cc2cc3n(n2)CCCNC3)CC1 | inconclusive: 10%

Part of the list above in order of length of the SMILES, low to high:
SMILES | inhibition
CS(=O)(=O)N1CCCN(Cc2cc3n(n2)CCCNC3)CC1 | inconclusive: 10%
CC(C)(Oc1ccc(Cl)cc1)C(=O)NCCSc1c[nH]c2ccccc12 | inactive
CCOc1cc2c(cc1OCC)C1C(C(=O)N3CCCC(C)C3)c3ccccc3C(=O)N1CC2 (centres undefined) | inconclusive: 12%

Continued:

SMILES | inhibition
O=C(Nc1ccc(Cl)cc1Cl)c1ccc(Cl)cc1Cl | inconclusive: 10%
O=C(O)c1ccc(NS(=O)(=O)c2cccc(C(=O)Nc3cccc([N+](=O)[O-])c3)c2)cc1 | inactive
Cc1ccc(CNC(=O)C(NS(=O)(=O)c2ccc3c(c2)oc(=O)n3C)C(C)C)cc1 (centres undefined) | inconclusive: 20%
Cc1cc(CN(C)Cc2nc3ccc(F)cc3[nH]2)n[nH]1 | inconclusive: 13%
Cc1cc(C)c2nc(N=C(N)NC(=O)Nc3ccccc3)nc(C)c2c1 | inconclusive: 16%
CC(C)N(C(=O)c1cnc2n(c1=O)CCS2)C(C)C | inactive
COc1ccc(C)cc1NC(=O)c1cc2nc(-c3ccco3)cc(C(F)(F)Cl)n2n1 | inconclusive: 11%
O=C(CCN1CCOCC1)c1ccccc1 | inconclusive: 11%
CCn1nc(C)cc1C(=O)N1CCCC(CNC(=O)c2cccc3ccccc23)C1 (centres undefined) | inconclusive: 21%
Cc1ccc(F)c(CN(C)Cc2ncc[nH]2)c1Cl | inconclusive: 13%
CC(C)C(=O)Nc1nc2cc(NC(=O)C3CCCN(S(=O)(=O)N4CCCC4)C3)ccc2s1 (centres undefined) | inconclusive: 12%
COc1cccc2cc(C(=O)Nc3cc(C)ccn3)c(=O)oc12 | inconclusive: 29%
OCC1(Cc2cccc(F)c2)CCN(Cc2nc(-c3ccccc3)cs2)CC1 | inconclusive: 18%
COc1ccc(C2C3=C(CCCC3=O)Nc3nc(SCc4ccccc4)nn32)cc1 (centres undefined) | inactive
COc1cccc(N2CCN(c3ncnc4c3cnn4-c3ccccc3)CC2)c1 | inconclusive: 19%
CCCCc1ccc(NC(=O)C2Cc3ccccc3C(=O)O2)cc1 (centres undefined) | inactive
CCNC(=O)N1CC[C@H]2CC(=O)N(c3ccccc3)CC[C@H]2C1 | inconclusive: 17%
O=C(c1ccc(F)cc1)N1CCN=C1SCc1cccnc1 | inactive
CC1(C)CC[C@]2(C(=O)O[C@@H]3O[C@H](CO)[C@@H](O)[C@H](O)[C@H]3O)CC[C@]3(C)C(=CCC4[C@@]5(C)CC[C@H](O[C@@H]6O[C@H](C(=O)O)[C@@H](O)[C@H](O[C@@H]7O[C@H](CO)[C@H](O)[C@H](O)[C@H]7O)[C@H]6O)C(C)(C)C5CC[C@]43C)C2C1 (some centres undefined) | inconclusive: 20%
c1ccc(SCCN2CCN(c3ccccc3)CC2)cc1 | inconclusive: 23%
COCCN(CCOC)C(=O)[C@@H](C)C1CC[C@@]2(C)CC[C@H](NC(=O)c3ccncc3)[C@@H](C)[C@@H]2[C@H]1O (some centres undefined) | inactive
O=C(NCCc1ccc(Cl)cc1)c1ccc(NC2=NC3CS(=O)(=O)CC3S2)cc1 (centres undefined) | inconclusive: 10%
Cc1cc2c(cc1Br)-n1c(nc3ccccc3c1=O)C2=O | inactive

SMILES | inhibition
CCN(Cc1ccncc1)C(=O)c1c2n(c(C)cc1=O)-c1ccccc1SC(c1cccs1)C2 (centres undefined) | inconclusive: 17%
CC1N=C2c3ccccc3N=C(SCC(=O)c3ccc(O)c(O)c3)N2C1=O (centres undefined) | inconclusive: 14%
Fc1ccc(CN(Cc2ccncc2)Cc2ccc(-c3ccn[nH]3)o2)cc1 | inconclusive: 11%
Cc1ccccc1CN1CCc2[nH]cnc2C1c1cccs1 (centres undefined) | inconclusive: 14%
O=S(=O)(NCc1ccccc1)Nc1ccc2c(c1)OCO2 | inconclusive: 12%
CCN(Cc1ccccc1)S(=O)(=O)c1ccc2c(c1)CCC(=O)N2 | inactive
COCc1cc(CNC(=O)[C@@]23CC[C@@](C)(OC2=O)C3(C)C)[nH]n1 | inconclusive: 26%
CCN(CCc1nc2ccc(OC)cc2[nH]1)C(=O)C1=NNC(=O)CC1 | inconclusive: 11%
O=C(c1cn(CCc2ccccc2)nn1)N1CCCC2(CCCN(Cc3ccccc3)C2)C1 (centres undefined) | inconclusive: 19%
Cc1ccc(N2C(=O)CC(Sc3ncn[nH]3)C2=O)cc1C (centres undefined) | active: 36%
CC1CCC(N2CCN(S(=O)(=O)c3ccc(Cl)cc3)CC2)CC1 (centres undefined) | inactive
O=C(O)CC1COCCN1C(=O)CC(=O)Nc1ccc(F)c(Cl)c1 (centres undefined) | inactive
O=C1c2ccccc2C(=O)N1C1C(=O)N(c2ccc(Br)cc2)C1c1ccc(F)cc1 (centres undefined) | inconclusive: 18%
CC(C)CNc1cc(C(=O)N2CCCN(C)CC2)cc(S(=O)(=O)NC(C)(C)C)c1 | inconclusive: 16%
CCC1=Nc2cc(C(=O)NCCCOC(C)C)ccc2Sc2ccc(C)cc21 | inconclusive: 12%
CC(C)c1ccccc1NC(=O)CSc1nnc(COc2ccc3c(c2)CCCC3)o1 | inactive
N#CC1(C#N)C2CCCCC23OC(=N)C1(C#N)C(c1cccc(F)c1)O3 (centres undefined) | inconclusive: 24%
Cc1cccc(S(=O)(=O)N2CCSC2c2ccc(Br)cc2)c1 (centres undefined) | inactive
O=[N+]([O-])c1ccc(C2SCCN2S(=O)(=O)c2ccc(I)cc2)cc1 (centres undefined) | inactive
COc1ccccc1N1CCN(C(=O)c2cn(C)c(=O)c3c2c2ccccc2n3C)CC1 | inactive
